# Measured values as given in the supplement of paper PMC11438910.
# The list shows a part of the results. The signal is at background level for most entries.
# B1: 3S41.2 (protein)
# chain 1: EVQLVESGGGLVQPGGSLRLSCATSGFTFRNYWMYWFRQAPGKGLDWVSSISDSSSNTFYSDSVKGRFTISRDNAKNTLYLQMNSLRAEDTAVYYCARRPIAAATGVYWYFDLWGPGTPITVSS
# chain 2: QAALTQPPSMSGSPGQSVTISCTGTSSDIGGYNRVSWYQQYPGKAPKLMIYEVSKRPSGVSDRFSGSKSGNTAALTISGLQAADEADYYCSSYAGSYTFVLFGGGTRLTVL
# Assays:
# Test in all cases: fluorescence intensity of antibody binding to polysaccharide-coupled beads; higher = stronger binding
# [1] = target: pneumococcal polysaccharide Pn6A
# [2] = target: pneumococcal polysaccharide Pn6B
# [3] = target: pneumococcal polysaccharide Pn6C
# [4] = target: pneumococcal polysaccharide Pn6D
# [5] = target: pneumococcal polysaccharide Pn7A
# [6] = target: pneumococcal polysaccharide Pn7B
# [7] = target: pneumococcal polysaccharide Pn7C
# [8] = target: pneumococcal polysaccharide Pn7F
# [9] = target: pneumococcal polysaccharide Pn8
# [10] = target: pneumococcal polysaccharide Pn9A
# [11] = target: pneumococcal polysaccharide Pn9L
# [12] = target: pneumococcal polysaccharide Pn9N
# [13] = target: pneumococcal polysaccharide Pn9V
# [14] = antibody concentration 81.7561 ng/mL
# [15] = antibody concentration 437.17 ng/mL
# [16] = antibody concentration 2337.65 ng/mL
# [17] = antibody concentration 12500 ng/mL
# [18] = antibody concentration 0.1 ng/mL
# [19] = antibody concentration 0.534724 ng/mL
# [20] = antibody concentration 2.8593 ng/mL
# [21] = antibody concentration 15.2894 ng/mL
binder,measurement,setting,value
B1,fluorescence intensity,[1]; [14],22.8 MFI
same,fluorescence intensity,[1]; [15],24 MFI
same,fluorescence intensity,[1]; [16],33 MFI
same,fluorescence intensity,[1]; [17],45.8 MFI
same,fluorescence intensity,[2]; [18],20.2 MFI
same,fluorescence intensity,[2]; [19],21 MFI
same,fluorescence intensity,[2]; [20],20 MFI
same,fluorescence intensity,[2]; [21],20 MFI
same,fluorescence intensity,[2]; [14],19.2 MFI
same,fluorescence intensity,[2]; [15],22 MFI
same,fluorescence intensity,[2]; [16],27.8 MFI
same,fluorescence intensity,[2]; [17],41.5 MFI
same,fluorescence intensity,[3]; [18],17.8 MFI
same,fluorescence intensity,[3]; [19],16.8 MFI
same,fluorescence intensity,[3]; [20],24 MFI
same,fluorescence intensity,[3]; [21],28 MFI
same,fluorescence intensity,[3]; [14],43.8 MFI
same,fluorescence intensity,[3]; [15],57 MFI
same,fluorescence intensity,[3]; [16],70.5 MFI
same,fluorescence intensity,[3]; [17],97.2 MFI
same,fluorescence intensity,[4]; [18],16.5 MFI
same,fluorescence intensity,[4]; [19],18.5 MFI
same,fluorescence intensity,[4]; [20],19.2 MFI
same,fluorescence intensity,[4]; [21],16.8 MFI
same,fluorescence intensity,[4]; [14],18 MFI
same,fluorescence intensity,[4]; [15],17.8 MFI
same,fluorescence intensity,[4]; [16],19.5 MFI
same,fluorescence intensity,[4]; [17],30.2 MFI
same,fluorescence intensity,[5]; [18],20.5 MFI
same,fluorescence intensity,[5]; [19],20 MFI
same,fluorescence intensity,[5]; [20],21 MFI
same,fluorescence intensity,[5]; [21],22 MFI
same,fluorescence intensity,[5]; [14],22.5 MFI
same,fluorescence intensity,[5]; [15],27.8 MFI
same,fluorescence intensity,[5]; [16],96.2 MFI
same,fluorescence intensity,[5]; [17],626 MFI
same,fluorescence intensity,[6]; [18],17 MFI
same,fluorescence intensity,[6]; [19],17 MFI
same,fluorescence intensity,[6]; [20],16 MFI
same,fluorescence intensity,[6]; [21],16.5 MFI
same,fluorescence intensity,[6]; [14],17.5 MFI
same,fluorescence intensity,[6]; [15],19 MFI
same,fluorescence intensity,[6]; [16],28.5 MFI
same,fluorescence intensity,[6]; [17],94 MFI
same,fluorescence intensity,[7]; [18],17 MFI
same,fluorescence intensity,[7]; [19],17 MFI
same,fluorescence intensity,[7]; [20],18 MFI
same,fluorescence intensity,[7]; [21],15.5 MFI
same,fluorescence intensity,[7]; [14],17 MFI
same,fluorescence intensity,[7]; [15],16.8 MFI
same,fluorescence intensity,[7]; [16],25 MFI
same,fluorescence intensity,[7]; [17],80 MFI
same,fluorescence intensity,[8]; [18],15.5 MFI
same,fluorescence intensity,[8]; [19],15 MFI
same,fluorescence intensity,[8]; [20],15 MFI
same,fluorescence intensity,[8]; [21],15.5 MFI
same,fluorescence intensity,[8]; [14],17 MFI
same,fluorescence intensity,[8]; [15],20 MFI
same,fluorescence intensity,[8]; [16],68.5 MFI
same,fluorescence intensity,[8]; [17],536 MFI
same,fluorescence intensity,[9]; [18],20.5 MFI
same,fluorescence intensity,[9]; [19],22 MFI
same,fluorescence intensity,[9]; [20],22 MFI
same,fluorescence intensity,[9]; [21],22.5 MFI
same,fluorescence intensity,[9]; [14],21.5 MFI
same,fluorescence intensity,[9]; [15],25 MFI
same,fluorescence intensity,[9]; [16],35.5 MFI
same,fluorescence intensity,[9]; [17],57.5 MFI
same,fluorescence intensity,[10]; [18],19.5 MFI
same,fluorescence intensity,[10]; [19],20 MFI
same,fluorescence intensity,[10]; [20],20 MFI
same,fluorescence intensity,[10]; [21],20.5 MFI
same,fluorescence intensity,[10]; [14],21.5 MFI
same,fluorescence intensity,[10]; [15],20 MFI
same,fluorescence intensity,[10]; [16],35 MFI
same,fluorescence intensity,[10]; [17],123 MFI
same,fluorescence intensity,[11]; [18],18 MFI
same,fluorescence intensity,[11]; [19],17 MFI
same,fluorescence intensity,[11]; [20],17 MFI
same,fluorescence intensity,[11]; [21],18 MFI
same,fluorescence intensity,[11]; [14],19 MFI
same,fluorescence intensity,[11]; [15],18 MFI
same,fluorescence intensity,[11]; [16],25 MFI
same,fluorescence intensity,[11]; [17],51 MFI
same,fluorescence intensity,[12]; [18],16.5 MFI
same,fluorescence intensity,[12]; [19],15.5 MFI
same,fluorescence intensity,[12]; [20],17 MFI
same,fluorescence intensity,[12]; [21],16.5 MFI
same,fluorescence intensity,[12]; [14],16 MFI
same,fluorescence intensity,[12]; [15],17.5 MFI
same,fluorescence intensity,[12]; [16],27.5 MFI
same,fluorescence intensity,[12]; [17],67.5 MFI
same,fluorescence intensity,[13]; [18],15 MFI
same,fluorescence intensity,[13]; [19],15.2 MFI
same,fluorescence intensity,[13]; [20],14.5 MFI
same,fluorescence intensity,[13]; [21],13.5 MFI
same,fluorescence intensity,[13]; [14],15 MFI
same,fluorescence intensity,[13]; [15],16 MFI
same,fluorescence intensity,[13]; [16],20.5 MFI
same,fluorescence intensity,[13]; [17],26.5 MFI

# Exported with tabs: entries from further up
binder	measurement	setting	value
B1	fluorescence intensity	[8]; [20]	15 MFI
same	fluorescence intensity	[8]; [21]	15.5 MFI
same	fluorescence intensity	[8]; [14]	17 MFI
same	fluorescence intensity	[8]; [15]	20 MFI
same	fluorescence intensity	[8]; [16]	68.5 MFI
same	fluorescence intensity	[8]; [17]	536 MFI
same	fluorescence intensity	[9]; [18]	20.5 MFI
